These are yes or no findings as the source states them, for the method shown. In cells and extracts the contact can be indirect. A yes stands for co-enrichment or nearness to the bait. Other partners may have been found.
B1: TLR7 (protein, UniProt Q9NYK1 27-1049)
chain: ARWFPKTLPCDVTLDVPKNHVIVDCTDKHLTEIPGGIPTNTTNLTLTINHIPDISPASFHRLDHLVEIDFRCNCVPIPLGSKNNMCIKRLQIKPRSFSGLTYLKSLYLDGNQLLEIPQGLPPSLQLLSLEANNIFSIRKENLTELANIEILYLGQNCYYRNPCYVSYSIEKDAFLNLTKLKVLSLKDNNVTAVPTVLPSTLTELYLYNNMIAKIQEDDFNNLNQLQILDLSGNCPRCYNAPFPCAPCKNNSPLQIPVNAFDALTELKVLRLHSNSLQHVPPRWFKNINKLQELDLSQNFLAKEIGDAKFLHFLPSLIQLDLSFNFELQVYRASMNLSQAFSSLKSLKILRIRGYVFKELKSFNLSPLHNLQNLEVLDLGTNFIKIANLSMFKQFKRLKVIDLSVNKISPSGDSSEVGFCSNARTSVESYEPQVLEQLHYFRYDKYARSCRFKNKEASFMSVNESCYKYGQTLDLSKNSIFFVKSSDFQHLSFLKCLNLSGNLISQTLNGSEFQPLAELRYLDFSNNRLDLLHSTAFEELHKLEVLDISSNSHYFQSEGITHMLNFTKNLKVLQKLMMNDNDISSSTSRTMESESLRTLEFRGNHLDVLWREGDNRYLQLFKNLLKLEELDISKNSLSFLPSGVFDGMPPNLKNLSLAKNGLKSFSWKKLQCLKNLETLDLSHNQLTTVPERLSNCSRSLKNLILKNNQIRSLTKYFLQDAFQLRYLDLSSNKIQMIQKTSFPENVLNNLKMLLLHHNRFLCTCDAVWFVWWVNHTEVTIPYLATDVTCVGPGAHKGQSVISLDLYTCELDLTNLILFSLSISVSLFLMVMMTASHLYFWDVWYIYHFCKAKIKGYQRLISPDCCYDAFIVYDTKDPAVTEWVLAELVAKLEDPREKHFNLCLEERDWLPGQPVLENLSQSIQLSKKTVFVMTDKYAKTENFKIAFYLSHQRLMDEKVDVIILIFLEKPFQKSKFLQLRKRLCGSSVLEWPTNPQAHPYFWQCLKNALATDNHVAYSQVFKETV
B2: DMPK (protein, UniProt Q09013 1-629)
chain: MSAEVRLRRLQQLVLDPGFLGLEPLLDLLLGVHQELGASELAQDKYVADFLQWAEPIVVRLKEVRLQRDDFEILKVIGRGAFSEVAVVKMKQTGQVYAMKIMNKWDMLKRGEVSCFREERDVLVNGDRRWITQLHFAFQDENYLYLVMEYYVGGDLLTLLSKFGERIPAEMARFYLAEIVMAIDSVHRLGYVHRDIKPDNILLDRCGHIRLADFGSCLKLRADGTVRSLVAVGTPDYLSPEILQAVGGGPGTGSYGPECDWWALGVFAYEMFYGQTPFYADSTAETYGKIVHYKEHLSLPLVDEGVPEEARDFIQRLLCPPETRLGRGGAGDFRTHPFFFGLDWDGLRDSVPPFTPDFEGATDTCNFDLVEDGLTAMVSGGGETLSDIREGAPLGVHLPFVGYSYSCMALRDSEVPGPTPMELEAEQLLEPHVQAPSLEPSVSPQDETAEVAVPAAVPAAEAEAEVTLRELQEALEEEVLTRQSLSREMEAIRTDNQNFASQLREAEARNRDLEAHVRQLQERMELLQAEGATAVTGVPSPRATDPPSHLDGPPAVAVGQCPLVGPGPMHRRHLLLPARVPRPGLSEALSLLLFAVVLSRAAALGCIGLVAHAGQLTAVWRRPGAARAP
B3: NDNL2 (protein, UniProt Q96MG7 1-304)
chain: MLQKPRNRGRSGGQAERDRDWSHSGNPGASRAGEDARVLRDGFAEEAPSTSRGPGGSQGSQGPSPQGARRAQAAPAVGPRSQKQLELKVSELVQFLLIKDQKKIPIKRADILKHVIGDYKDIFPDLFKRAAERLQYVFGYKLVELEPKSNTYILINTLEPVEEDAEMRGDQGTPTTGLLMIVLGLIFMKGNTIKETEAWDFLRRLGVYPTKKHLIFGDPKKLITEDFVRQRYLEYRRIPHTDPVDYEFQWGPRTNLETSKMKVLKFVAKVHNQDPKDWPAQYCEALADEENRARPQPSGPAPSS
B4: RAB11FIP3 (protein, UniProt O75154 1-756)
chain: MASAPPASPPGSEPPGPDPEPGGPDGPGAAQLAPGPAELRLGAPVGGPDPQSPGLDEPAPGAAADGGARWSAGPAPGLEGGPRDPGPSAPPPRSGPRGQLASPDAPGPGPRSEAPLPELDPLFSWTEEPEECGPASCPESAPFRLQGSSSSHRARGEVDVFSPFPAPTAGELALEQGPGSPPQPSDLSQTHPLPSEPVGSQEDGPRLRAVFDALDGDGDGFVRIEDFIQFATVYGAEQVKDLTKYLDPSGLGVISFEDFYQGITAIRNGDPDGQCYGGVASAQDEEPLACPDEFDDFVTYEANEVTDSAYMGSESTYSECETFTDEDTSTLVHPELQPEGDADSAGGSAVPSECLDAMEEPDHGALLLLPGRPHPHGQSVITVIGGEEHFEDYGEGSEAELSPETLCNGQLGCSDPAFLTPSPTKRLSSKKVARYLHQSGALTMEALEDPSPELMEGPEEDIADKVVFLERRVLELEKDTAATGEQHSRLRQENLQLVHRANALEEQLKEQELRACEMVLEETRRQKELLCKMEREKSIEIENLQTRLQQLDEENSELRSCTPCLKANIERLEEEKQKLLDEIESLTLRLSEEQENKRRMGDRLSHERHQFQRDKEATQELIEDLRKQLEHLQLLKLEAEQRRGRSSSMGLQEYHSRARESELEQEVRRLKQDNRNLKEQNEELNGQIITLSIQGAKSLFSTAFSESLAAEISSVSRDELMEAIQKQEEINFRLQDYIDRIIVAIMETNPSILEVK
B5: GOT2 (protein, UniProt P00505 30-430)
chain: SSWWTHVEMGPPDPILGVTEAFKRDTNSKKMNLGVGAYRDDNGKPYVLPSVRKAEAQIAAKNLDKEYLPIGGLAEFCKASAELALGENSEVLKSGRFVTVQTISGTGALRIGASFLQRFFKFSRDVFLPKPTWGNHTPIFRDAGMQLQGYRYYDPKTCGFDFTGAVEDISKIPEQSVLLLHACAHNPTGVDPRPEQWKEIATVVKKRNLFAFFDMAYQGFASGDGDKDAWAVRHFIEQGINVCLCQSYAKNMGLYGERVGAFTMVCKDADEAKRVESQLKILIRPMYSNPPLNGARIAAAILNTPDLRKQWLQEVKVMADRIIGMRTQLVSNLKKEGSTHNWQHITDQIGMFCFTGLKPEQVERLIKEFSIYMTKDGRISVAGVTSSNVGYLAHAIHQVTK
B6: C6orf15 (protein, UniProt Q6UXA7 27-325)
chain: RSIGVVEEKVSQNLGTNLPQLGQPSSTGPSNSEHPQPALDPRSNDLARVPLKLSVPASDGFPPAGGSAVQRWPPSWGLPAMDSWPPEDPWQMMAAAAEDRLGEALPEELSYLSSAAALAPGSGPLPGESSPDATGLSPKASLLHQDSESRRLPRSNSLGAGGKILSQRPPWSLIHRVLPDHPWGTLNPSVSWGGGGPGTGWGTRPMPHPEGIWGINNQPPGTSWGNINRYPGGSWGNINRYPGGSWGNINRYPGGSWGNIHLYPGINNPFPPGVLRPPGSSWNIPAGFPNPPSPRLQWG
B7: AP4S1 (protein, UniProt Q9Y587 1-144)
chain: MIKFFLMVNKQGQTRLSKYYEHVDINKRTLLETEVIKSCLSRSNEQCSFIEYKDFKLIYRQYAALFIVVGVNDTENEMAIYEFIHNFVEVLDEYFSRVSELDIMFNLDKVHIILDEMVLNGCIVETNRARILAPLLILDKMSES
B8: RGS22 (protein, UniProt Q8NE09 1-1264)
chain: MPEKRLTAEPPTITEEEFEDSLATDDFLVDYFNEFLSLPTFSEAIRFNADYGVFEVANDAPQFLEKQLKKILQNQQPRNPIYDVVRKGKNEVKPVQMNAPDEDETINVNYNIMCLSREEGIKWIKKERLPAFLESDCYFEYRLAKLVSQVRWSKSGMNFTVGSNFSPWIVKKPPSLPPPATEEDNLVIMKKFYVSLGEASYTQTKDWFALAKQSQQTVSTFSLPCCVPYNKLKSPAISSVSENFIFDDGVHPRTKKDPSKTNKLISEFEEEEGEEEEVSVSLQDTPSQALLRVYLEKKQDVDESLTMHFSTCEEFLSSYIYFILRGAIQQIVGKPVGETPDYINFNNITKVSFDDCFESIHGKNFLSELVQTTKERSEEIEQTSLSSKNESAGPESRADWCISHRTYDIGNRKEFERFKKFIKGTLGERYWWLWMDIERLKVLKDPGRHQRHLEKMKKCYLVSNGDYYLSAEILSKFKLLDGSQWNEEHLRNIQSEVLKPLLLYWAPRFCVTHSASTKYASAELKFWHLRQAKPRKDIDPFPQMATLLPLRPKSCIPQIPEIQKEEFSLSQPPKSPNKSPEVKTATQKPWKRELLYPGSSKDDVIEKGSKYMSESSKVIHLTSFTDISECLKPQLDRRYAYTEEPRVKTVSDVGALGGSDMENLLQSLYVENRAGFFFTKFCEHSGNKLWKNSVYFWFDLQAYHQLFYQETLQPFKVCKQAQYLFATYVAPSATLDIGLQQEKKKEIYMKIQPPFEDLFDTAEEYILLLLLEPWTKMVKSDQIAYKKVELVEETRQLDSTYFRKLQALHKETFSKKAEDTTCEIGTGILSLSNVSKRTEYWDNVPAEYKHFKFSDLLNNKLEFEHFRQFLETHSSSMDLMCWTDIEQFRRITYRDRNQRKAKSIYIKNKYLNKKYFFGPNSPASLYQQNQVMHLSGGWGKILHEQLDAPVLVEIQKHVQNRLENVWLPLFLASEQFAARQKIKVQMKDIAEELLLQKAEKKIGVWKPVESKWISSSCKIIAFRKALLNPVTSRQFQRFVALKGDLLENGLLFWQEVQKYKDLCHSHCDESVIQKKITTIINCFINSSIPPALQIDIPVEQAQKIIEHRKELGPYVFREAQMTIFGVLFKFWPQFCEFRKNLTDENIMSVLERRQEYNKQKKKLAVLEDEKSGKDGIKQYANTSVPAIKTALLSDSFLGLQPYGRQPTWCYSKYIEALEQERILLKIQEELEKKLFAGLQPLTNFKASSSTMSLKKNMSAHSSQK
B9: SLC12A2 (protein, UniProt P55011 1-1212)
chain: MEPRPTAPSSGAPGLAGVGETPSAAALAAARVELPGTAVPSVPEDAAPASRDGGGVRDEGPAAAGDGLGRPLGPTPSQSRFQVDLVSENAGRAAAAAAAAAAAAAAAGAGAGAKQTPADGEASGESEPAKGSEEAKGRFRVNFVDPAASSSAEDSLSDAAGVGVDGPNVSFQNGGDTVLSEGSSLHSGGGGGSGHHQHYYYDTHTNTYYLRTFGHNTMDAVPRIDHYRHTAAQLGEKLLRPSLAELHDELEKEPFEDGFANGEESTPTRDAVVTYTAESKGVVKFGWIKGVLVRCMLNIWGVMLFIRLSWIVGQAGIGLSVLVIMMATVVTTITGLSTSAIATNGFVRGGGAYYLISRSLGPEFGGAIGLIFAFANAVAVAMYVVGFAETVVELLKEHSILMIDEINDIRIIGAITVVILLGISVAGMEWEAKAQIVLLVILLLAIGDFVIGTFIPLESKKPKGFFGYKSEIFNENFGPDFREEETFFSVFAIFFPAATGILAGANISGDLADPQSAIPKGTLLAILITTLVYVGIAVSVGSCVVRDATGNVNDTIVTELTNCTSAACKLNFDFSSCESSPCSYGLMNNFQVMSMVSGFTPLISAGIFSATLSSALASLVSAPKIFQALCKDNIYPAFQMFAKGYGKNNEPLRGYILTFLIALGFILIAELNVIAPIISNFFLASYALINFSVFHASLAKSPGWRPAFKYYNMWISLLGAILCCIVMFVINWWAALLTYVIVLGLYIYVTYKKPDVNWGSSTQALTYLNALQHSIRLSGVEDHVKNFRPQCLVMTGAPNSRPALLHLVHDFTKNVGLMICGHVHMGPRRQAMKEMSIDQAKYQRWLIKNKMKAFYAPVHADDLREGAQYLMQAAGLGRMKPNTLVLGFKKDWLQADMRDVDMYINLFHDAFDIQYGVVVIRLKEGLDISHLQGQEELLSSQEKSPGTKDVVVSVEYSKKSDLDTSKPLSEKPITHKVEEEDGKTATQPLLKKESKGPIVPLNVADQKLLEASTQFQKKQGKNTIDVWWLFDDGGLTLLIPYLLTTKKKWKDCKIRVFIGGKINRIDHDRRAMATLLSKFRIDFSDIMVLGDINTKPKKENIIAFEEIIEPYRLHEDDKEQDIADKMKEDEPWRITDNELELYKTKTYRQIRLNELLKEHSSTANIIVMSLPVARKGAVSSALYMAWLEALSKDLPPILLVRGNHQSVLTFYS

Amino acid sequences for entries named in this document (tags omitted). A change or cut given only in a name is not applied to a line headed by its entry.
UniProt Q9H239: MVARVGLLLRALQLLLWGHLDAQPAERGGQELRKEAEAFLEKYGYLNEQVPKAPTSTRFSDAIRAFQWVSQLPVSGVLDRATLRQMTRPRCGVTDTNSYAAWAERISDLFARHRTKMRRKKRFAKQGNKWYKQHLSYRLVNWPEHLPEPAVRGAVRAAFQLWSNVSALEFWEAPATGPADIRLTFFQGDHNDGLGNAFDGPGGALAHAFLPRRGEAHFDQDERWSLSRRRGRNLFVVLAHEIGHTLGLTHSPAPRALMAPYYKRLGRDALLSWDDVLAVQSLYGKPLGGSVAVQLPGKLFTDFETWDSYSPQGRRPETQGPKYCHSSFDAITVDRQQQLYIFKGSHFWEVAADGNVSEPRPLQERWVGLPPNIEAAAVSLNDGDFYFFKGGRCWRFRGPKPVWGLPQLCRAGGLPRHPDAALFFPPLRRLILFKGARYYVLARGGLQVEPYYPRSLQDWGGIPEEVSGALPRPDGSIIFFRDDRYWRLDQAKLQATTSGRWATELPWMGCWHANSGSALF

target: matrix metalloproteinase 28 (MMP28) (human (endogenous in AsPC-1 and BxPC-3)) (UniProt Q9H239); assay: affinity purification with mass spectrometry; BxPC-3 whole-cell lysate (enhanced RIPA buffer) incubated with MMP28 antibody or IgG control at 4 °C overnight, protein A/G agarose 3 h, five RIPA washes; LC-MS/MS; top 30 candidates listed

binding, binds:
B1
B2
B3
B4
B5
B6
B7
B8
B9
